Earlier results as cited in patent US20130338130A1 (priority 2009, published 2013).
Where two headings read alike, the source gives them in different places.

Tested on: Staphylococcus aureus
Details: Etest system, cited from earlier work

Cc1onc(-c2ccccc2)c1C(=O)N[C@@H]1C(=O)N2[C@@H]1SC(C)(C)[C@@H]2C(=O)O [oxacillin, reference compound]
MIC (MRSA): at least 2 μg/ml | MIC (drug sensitive Staphylococcus aureus): ≤ 2 µg/mL
